Measurements: paper PMC11252441
No constants are given. Whether binding was seen depends on the method and setting. Binding seen in cells or lysates may run through a third protein. A yes stands for co-enrichment or nearness to the bait. Other partners may have been found.

Protein sequences, listed by entry. Tags and fused reporters are not part of them. Residues count along the entry.
UniProt P20491, residues 19-86: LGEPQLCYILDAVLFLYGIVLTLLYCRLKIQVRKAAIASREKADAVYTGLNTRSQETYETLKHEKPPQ
UniProt Q3UGY8: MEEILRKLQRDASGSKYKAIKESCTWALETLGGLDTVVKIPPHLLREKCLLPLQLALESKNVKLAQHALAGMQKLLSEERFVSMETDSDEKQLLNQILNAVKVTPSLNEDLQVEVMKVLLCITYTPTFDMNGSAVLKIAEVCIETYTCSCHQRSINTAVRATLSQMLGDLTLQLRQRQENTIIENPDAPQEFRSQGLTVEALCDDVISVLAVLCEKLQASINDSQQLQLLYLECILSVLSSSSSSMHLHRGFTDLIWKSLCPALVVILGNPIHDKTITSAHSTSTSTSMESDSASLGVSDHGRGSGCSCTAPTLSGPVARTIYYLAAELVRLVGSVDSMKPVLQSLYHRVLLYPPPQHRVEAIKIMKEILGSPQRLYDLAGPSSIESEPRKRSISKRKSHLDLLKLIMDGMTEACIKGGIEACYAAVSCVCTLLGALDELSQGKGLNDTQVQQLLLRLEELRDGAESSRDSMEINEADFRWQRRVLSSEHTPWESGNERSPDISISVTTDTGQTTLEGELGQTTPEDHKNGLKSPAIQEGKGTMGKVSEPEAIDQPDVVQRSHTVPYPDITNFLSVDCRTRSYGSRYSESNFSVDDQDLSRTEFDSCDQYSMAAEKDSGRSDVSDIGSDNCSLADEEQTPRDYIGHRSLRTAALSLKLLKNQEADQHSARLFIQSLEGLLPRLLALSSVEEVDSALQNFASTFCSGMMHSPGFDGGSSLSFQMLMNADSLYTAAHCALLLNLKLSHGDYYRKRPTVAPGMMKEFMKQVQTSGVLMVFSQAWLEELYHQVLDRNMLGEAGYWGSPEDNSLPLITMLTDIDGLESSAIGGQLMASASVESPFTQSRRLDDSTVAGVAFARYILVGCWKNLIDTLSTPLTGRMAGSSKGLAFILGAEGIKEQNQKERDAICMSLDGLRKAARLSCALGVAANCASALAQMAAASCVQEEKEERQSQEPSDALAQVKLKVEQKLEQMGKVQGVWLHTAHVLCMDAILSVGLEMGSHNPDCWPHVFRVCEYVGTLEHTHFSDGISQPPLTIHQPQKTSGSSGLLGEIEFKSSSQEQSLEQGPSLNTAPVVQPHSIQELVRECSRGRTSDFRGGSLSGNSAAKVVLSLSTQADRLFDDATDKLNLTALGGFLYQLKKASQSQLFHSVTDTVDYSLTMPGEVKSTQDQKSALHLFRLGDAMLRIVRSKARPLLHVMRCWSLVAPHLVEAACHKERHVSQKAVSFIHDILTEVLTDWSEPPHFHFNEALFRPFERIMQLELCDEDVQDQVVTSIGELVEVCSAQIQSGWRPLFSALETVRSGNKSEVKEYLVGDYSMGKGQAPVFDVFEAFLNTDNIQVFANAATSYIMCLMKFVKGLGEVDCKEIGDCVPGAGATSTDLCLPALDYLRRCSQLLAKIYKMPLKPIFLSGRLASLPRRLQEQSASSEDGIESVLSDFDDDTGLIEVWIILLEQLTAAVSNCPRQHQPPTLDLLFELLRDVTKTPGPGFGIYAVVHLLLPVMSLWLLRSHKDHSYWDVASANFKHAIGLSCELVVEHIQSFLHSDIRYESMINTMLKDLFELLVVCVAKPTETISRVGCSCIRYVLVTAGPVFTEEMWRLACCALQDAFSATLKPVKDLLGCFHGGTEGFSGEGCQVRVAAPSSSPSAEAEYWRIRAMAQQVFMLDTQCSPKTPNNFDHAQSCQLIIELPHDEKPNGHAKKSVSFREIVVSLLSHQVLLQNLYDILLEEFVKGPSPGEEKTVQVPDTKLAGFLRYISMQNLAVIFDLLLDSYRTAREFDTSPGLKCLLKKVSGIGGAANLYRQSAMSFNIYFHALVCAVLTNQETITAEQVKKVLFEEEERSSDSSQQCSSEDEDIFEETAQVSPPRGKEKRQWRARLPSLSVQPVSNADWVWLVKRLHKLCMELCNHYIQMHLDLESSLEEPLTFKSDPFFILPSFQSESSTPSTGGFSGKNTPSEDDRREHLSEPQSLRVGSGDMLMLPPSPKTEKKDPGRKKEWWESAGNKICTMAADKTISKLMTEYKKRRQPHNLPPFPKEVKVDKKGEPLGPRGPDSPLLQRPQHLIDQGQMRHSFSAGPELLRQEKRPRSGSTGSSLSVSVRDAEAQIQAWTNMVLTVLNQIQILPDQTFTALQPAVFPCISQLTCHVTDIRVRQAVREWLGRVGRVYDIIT
UniProt Q6DFZ1: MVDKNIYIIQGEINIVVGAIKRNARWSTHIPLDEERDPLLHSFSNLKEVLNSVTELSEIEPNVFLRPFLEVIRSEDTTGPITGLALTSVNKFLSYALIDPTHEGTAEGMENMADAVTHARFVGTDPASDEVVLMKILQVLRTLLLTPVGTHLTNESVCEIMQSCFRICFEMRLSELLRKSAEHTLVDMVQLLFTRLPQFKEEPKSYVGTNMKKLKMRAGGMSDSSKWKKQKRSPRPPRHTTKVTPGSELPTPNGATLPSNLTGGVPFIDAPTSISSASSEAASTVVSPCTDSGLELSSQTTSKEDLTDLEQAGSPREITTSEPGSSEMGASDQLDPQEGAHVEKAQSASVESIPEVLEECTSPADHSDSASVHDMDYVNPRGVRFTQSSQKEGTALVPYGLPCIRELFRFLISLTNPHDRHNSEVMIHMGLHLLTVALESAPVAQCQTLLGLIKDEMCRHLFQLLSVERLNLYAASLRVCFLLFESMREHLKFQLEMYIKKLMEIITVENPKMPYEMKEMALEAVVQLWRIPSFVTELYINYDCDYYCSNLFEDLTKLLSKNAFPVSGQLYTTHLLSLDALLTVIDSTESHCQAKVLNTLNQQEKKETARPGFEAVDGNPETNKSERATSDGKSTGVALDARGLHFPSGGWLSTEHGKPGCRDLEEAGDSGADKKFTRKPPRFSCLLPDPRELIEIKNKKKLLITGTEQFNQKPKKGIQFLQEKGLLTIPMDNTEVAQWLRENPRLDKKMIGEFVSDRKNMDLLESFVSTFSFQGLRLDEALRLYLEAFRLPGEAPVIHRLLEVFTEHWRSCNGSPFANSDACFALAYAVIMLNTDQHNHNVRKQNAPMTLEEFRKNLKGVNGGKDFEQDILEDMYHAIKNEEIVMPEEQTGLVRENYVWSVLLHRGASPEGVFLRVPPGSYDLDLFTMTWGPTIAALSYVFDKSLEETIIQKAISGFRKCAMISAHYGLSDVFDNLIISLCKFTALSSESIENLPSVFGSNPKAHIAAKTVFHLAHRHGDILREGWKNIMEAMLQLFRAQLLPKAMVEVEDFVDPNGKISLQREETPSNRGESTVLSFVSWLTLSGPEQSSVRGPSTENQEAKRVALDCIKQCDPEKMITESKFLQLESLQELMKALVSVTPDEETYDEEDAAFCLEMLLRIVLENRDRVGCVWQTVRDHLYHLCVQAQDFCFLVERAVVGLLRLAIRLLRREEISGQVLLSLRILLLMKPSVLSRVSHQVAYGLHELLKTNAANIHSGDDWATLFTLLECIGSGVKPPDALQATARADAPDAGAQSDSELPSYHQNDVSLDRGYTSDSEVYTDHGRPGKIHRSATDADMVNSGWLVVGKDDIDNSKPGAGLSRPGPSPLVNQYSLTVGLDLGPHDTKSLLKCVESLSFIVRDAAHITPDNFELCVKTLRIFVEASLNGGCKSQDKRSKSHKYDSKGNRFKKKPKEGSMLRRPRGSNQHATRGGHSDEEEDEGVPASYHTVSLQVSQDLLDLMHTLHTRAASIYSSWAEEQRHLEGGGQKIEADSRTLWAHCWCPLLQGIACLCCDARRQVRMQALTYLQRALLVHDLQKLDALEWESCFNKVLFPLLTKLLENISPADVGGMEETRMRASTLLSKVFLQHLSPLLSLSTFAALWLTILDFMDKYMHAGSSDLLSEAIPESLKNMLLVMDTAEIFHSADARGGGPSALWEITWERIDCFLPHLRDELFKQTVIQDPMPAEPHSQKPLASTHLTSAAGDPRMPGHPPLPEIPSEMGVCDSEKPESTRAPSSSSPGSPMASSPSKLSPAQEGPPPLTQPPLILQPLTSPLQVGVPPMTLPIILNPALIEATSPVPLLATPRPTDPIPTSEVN
UniProt P52332: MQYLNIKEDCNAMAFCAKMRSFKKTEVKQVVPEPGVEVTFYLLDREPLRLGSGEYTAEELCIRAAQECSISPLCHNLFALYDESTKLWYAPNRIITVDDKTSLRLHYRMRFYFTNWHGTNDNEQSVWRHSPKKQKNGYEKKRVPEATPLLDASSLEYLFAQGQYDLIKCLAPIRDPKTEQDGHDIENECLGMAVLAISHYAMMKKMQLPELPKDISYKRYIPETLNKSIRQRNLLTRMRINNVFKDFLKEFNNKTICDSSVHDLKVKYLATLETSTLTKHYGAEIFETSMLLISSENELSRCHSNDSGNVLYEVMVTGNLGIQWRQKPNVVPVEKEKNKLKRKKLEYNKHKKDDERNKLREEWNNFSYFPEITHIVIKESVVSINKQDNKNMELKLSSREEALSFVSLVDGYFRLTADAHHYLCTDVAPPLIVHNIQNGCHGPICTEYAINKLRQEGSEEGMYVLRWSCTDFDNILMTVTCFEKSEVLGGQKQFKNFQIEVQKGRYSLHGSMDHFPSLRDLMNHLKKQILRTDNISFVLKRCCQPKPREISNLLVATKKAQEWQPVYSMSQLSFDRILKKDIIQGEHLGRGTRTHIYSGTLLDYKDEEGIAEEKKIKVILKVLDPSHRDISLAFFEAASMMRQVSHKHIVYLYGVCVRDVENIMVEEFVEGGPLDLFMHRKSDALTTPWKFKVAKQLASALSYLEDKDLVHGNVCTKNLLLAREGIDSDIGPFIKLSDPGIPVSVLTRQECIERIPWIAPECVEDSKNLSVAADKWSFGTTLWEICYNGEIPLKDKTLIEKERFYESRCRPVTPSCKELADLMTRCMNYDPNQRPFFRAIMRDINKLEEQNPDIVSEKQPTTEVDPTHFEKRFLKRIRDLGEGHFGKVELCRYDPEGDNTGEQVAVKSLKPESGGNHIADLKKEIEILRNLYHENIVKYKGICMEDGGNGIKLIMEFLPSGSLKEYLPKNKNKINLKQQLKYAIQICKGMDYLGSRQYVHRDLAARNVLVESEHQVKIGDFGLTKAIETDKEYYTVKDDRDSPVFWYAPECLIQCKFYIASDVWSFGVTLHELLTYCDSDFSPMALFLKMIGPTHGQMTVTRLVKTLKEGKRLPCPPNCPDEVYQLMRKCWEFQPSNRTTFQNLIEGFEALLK
UniProt Q7TNP2: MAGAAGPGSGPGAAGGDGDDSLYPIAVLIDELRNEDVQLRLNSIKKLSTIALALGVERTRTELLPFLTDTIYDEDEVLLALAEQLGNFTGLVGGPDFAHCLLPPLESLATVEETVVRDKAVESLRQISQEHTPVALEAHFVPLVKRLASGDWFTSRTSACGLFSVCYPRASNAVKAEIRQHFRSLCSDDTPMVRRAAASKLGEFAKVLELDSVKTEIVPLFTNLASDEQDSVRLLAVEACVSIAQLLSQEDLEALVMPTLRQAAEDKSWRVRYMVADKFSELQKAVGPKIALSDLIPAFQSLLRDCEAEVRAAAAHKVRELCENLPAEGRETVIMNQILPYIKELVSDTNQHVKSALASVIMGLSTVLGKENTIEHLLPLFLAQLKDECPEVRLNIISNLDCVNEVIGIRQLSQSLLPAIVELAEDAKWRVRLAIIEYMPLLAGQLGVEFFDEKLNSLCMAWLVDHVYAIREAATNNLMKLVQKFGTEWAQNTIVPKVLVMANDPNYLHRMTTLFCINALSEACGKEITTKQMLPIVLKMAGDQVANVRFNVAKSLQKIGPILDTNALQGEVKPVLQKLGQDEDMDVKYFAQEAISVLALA
UniProt Q6PD03: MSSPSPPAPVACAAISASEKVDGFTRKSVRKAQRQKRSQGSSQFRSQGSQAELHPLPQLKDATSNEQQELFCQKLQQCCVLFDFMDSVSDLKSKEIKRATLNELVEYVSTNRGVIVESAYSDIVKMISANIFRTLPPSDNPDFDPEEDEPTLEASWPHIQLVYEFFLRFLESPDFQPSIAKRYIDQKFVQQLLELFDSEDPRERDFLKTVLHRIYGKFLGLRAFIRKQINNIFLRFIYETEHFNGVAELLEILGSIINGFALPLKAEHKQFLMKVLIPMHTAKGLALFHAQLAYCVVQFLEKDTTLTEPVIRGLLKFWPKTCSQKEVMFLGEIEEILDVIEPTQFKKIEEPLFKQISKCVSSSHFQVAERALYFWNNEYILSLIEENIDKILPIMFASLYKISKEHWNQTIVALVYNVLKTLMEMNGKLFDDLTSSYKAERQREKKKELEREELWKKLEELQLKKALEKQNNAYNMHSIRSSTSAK

Molecular target: FcεR1γ-FLAG (mouse) (UniProt P20491)
Assay: affinity purification with mass spectrometry; anti-FLAG antibodies and Protein A/G magnetic beads on lysate of GFP+ RAW 264.7 cells lentivirally expressing FcεR1γ-FLAG (empty virus as control); lysis 50 mM Tris-HCl pH 7.4, 150 mM NaCl, 1% Triton X-100, 5 mM EDTA; wash with 500 mM NaCl, 0.1% Triton X-100; 4 °C; Orbitrap Exploris 480, MaxQuant LFQ

Q: With ARFGEF1 (from UniProt G3X9K3 1-1846) as the substance, how does the binding read?
A: binds

Q: For ARFGEF3 (from UniProt Q3UGY8 1-2170), which binding is on record?
A: binds

Q: Which binding does the source give for CYFIP1 (from UniProt Q7TMB8 1-1253) here?
A: binds

Q: For DOCK2 (from UniProt Q8C3J5 1-1828), which binding is on record?
A: binds

Q: ELMO1 (from UniProt Q8BPU7 1-727) was tested. Which binding did it give?
A: binds

Q: How did the binding turn out when GBF1 (from UniProt Q6DFZ1 1-1861) was run?
A: binds

Q: For IPO7 (from UniProt Q9EPL8 1-1038), which binding is on record?
A: binds

Q: For IPO9 (from UniProt Q91YE6 1-1041), which binding is on record?
A: binds

Q: With JAK1 (from UniProt P52332 1-1153) as the substance, how does the binding read?
A: binds

Q: KPNB1 (from UniProt P70168 1-876) was tested. Which binding did it give?
A: binds

Q: With PPP2R1B (from UniProt Q7TNP2 1-601) as the substance, how does the binding read?
A: binds

Q: How did the binding turn out when PPP2R5A (from UniProt Q6PD03 1-486) was run?
A: binds

Q: Which binding does the source give for XPO1 (from UniProt Q6P5F9 1-1071) here?
A: binds
